The campaign covered roughly 52,000 sequences. About 210 (0.4%) were called active.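 Rule for the calls: active = gene whose silencing raises cell survival under the drug, median off-target-corrected z-score across its silencing RNAs 2 or more; inactive = the rest.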 This is one part of the list.

This test can be described thus: Resistance to Poly (ADP-Ribose) Polymerase inhibitor: Gene Identification via Genome-wide siRNA Screen. Conditions: mouse BRCA2 R2336H ES cells, olaparib, CellTiter-Glo viability; active compounds read high. An outline of the steps: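 Genome-wide siRNA screen (3 siRNAs/gene, 20 nM) in mouse ES cells carrying hypomorphic BRCA2 R2336H; olaparib 500 nM added 48 h post-transfection, CellTiter-Glo viability 72 h later. Normalized to plate-median negative control; MAD z-scores, gene median, seed-adjusted.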
Background: In ATP-based viability assays light output follows the ATP content of the culture.
As for CCCACUAAGGAACAAAUUGTT against LOC541463, the z-score is inactive: 0.132.

As for “GGCCUUGUAAAUUAUGCAUTT against C130068N17Rik”, the z-score was inactive: 1.66.

As to GCAGACUAAAAUCACGACATT against Ednra, the z-score is inactive: 0.0416.

Take GGAGACCCACUACAUGACUTT against H2-M2: the z-score is inactive: -0.484.

In the case of GCAGAAGUGAUUGAUACACTT against Hars, the z-score was inactive: 1.07.

With “GGAUGGAGAGAACUACUUATT against C730027E14Rik”, the z-score is inactive: 0.579.

With GGCAGUCAGCUAAUGCUUATT against Pros1, the z-score is inactive: 1.76.

As for GCUGUUUAUAUUUCUUGCUTT against Olfr1393, the z-score is inactive: 1.09.

Take GGAGAACUCCUACAUGUCUTT against Irak1: the z-score is inactive: 1.94.

As for “GCAGGAUCCUGAAACCAUGTT against E130306I01Rik”, the z-score was inactive: -0.00862.

Regarding GCAGAUCUUGACUUGUCCATT against Orc6l, the z-score was inactive: 0.319.

Regarding “GCAGCAGUGUGGUGACUGUTT against 4933404M02Rik”, the z-score was inactive: -2.21.

Consider GCCUUUUGGAAACUUGCCCTT against Bcat1, for which the z-score was inactive: 0.102.

Take GGUAUAGCCACAGGUACAUTT against Phxr5: the z-score is inactive: 0.0664.

Turning to GGAAAUUUUUCGUAAGUUGTT against Ncor1, the z-score is inactive: -0.799.

As to GGAAAAUGUUGAAGUGGAATT against Ndufa5, the z-score was inactive: 0.54.

Consider “GGUUACCCUUGAGAAGAACTT against 4430402O11Rik”, for which the z-score was inactive: 0.136.

GGGAGGACCUUGUGUAUCATT against BC055811: the z-score was inactive: -0.403.

For the sequence GCCGUCUAAGUAUCAGAAATT against Abca14, the z-score is inactive: -0.753.

With CCGCAUUCCAGAGGAUAACTT against Mgst1, the z-score is inactive: -0.635.

For the sequence “GCAUAUUUCCGAGGAUCAATT against 9630046K23Rik”, the z-score was inactive: -0.355.

For GGAGCUAUAUUCUCACCCATT against Ptpn1, the z-score was inactive: -0.83.

GGGAGCUCUCUACGAGAUUTT against Ever2: the z-score is inactive: -0.0879.

Consider CCCAGGAGAUCCAUAUCAATT against BC023151, for which the z-score is inactive: 0.196.

In the case of GGAGCAUUGCCUUUUAAAGTT against Psph, the z-score is inactive: 0.525.

Regarding CCUGGAUACCUUCAACUAUTT against Galnt14, the z-score is inactive: 0.715.

On to CCUUGUAGGAAAAAAGUCCTT against Zfp109, for which the z-score is inactive: 2.17.

With GGAUUUGCUUCAACAUAGGTT against Ncf2, the z-score is inactive: -0.245.

GGAGGUAGAAAUAAAUACUTT against Sva: the z-score is inactive: -2.18.

GAGGGCAUAAUGGUUUUUATT against Hist1h3c: the z-score is inactive: 0.888.

Consider GGCGGUGAAGACAUUGAAATT against Stxbp2, for which the z-score is inactive: 0.346.

On to GCUAACCAAGCUUGUGACATT against Adat1, for which the z-score was inactive: -1.14.

Regarding “GGUAAAGACACAGAGCUGCTT against 1700051C09Rik”, the z-score was inactive: 1.18.

In the case of “CGUAUGAGUGCAAUACUAATT against A030012M09Rik”, the z-score is inactive: 0.298.

Consider “GCUGUUAUUCAAGGAAUUCTT against 1700024C24Rik”, for which the z-score is inactive: -0.681.

Regarding GGGACUUUCCAGUGUAAAGTT against Npb, the z-score is inactive: 0.366.

As to CCAAUCAACCCUCUAAGCATT against Nphp4, the z-score was inactive: -1.7.

For the sequence GGACAAUUGUAAGGACAGATT against Slc1a6, the z-score was inactive: -1.36.

For the sequence GGCAGAUGGCCGAAUUGAUTT against Rest, the z-score is inactive: -0.479.

Take GGAACUGAUCUGGAAGAAUTT against Sdh1: the z-score is inactive: 1.28.

Regarding GGAAGAUGACCUCAUCCACTT against Tslpr, the z-score is inactive: 0.45.

Turning to GGAGCACAUGCUCAAAAGATT against Pccb, the z-score is inactive: 1.34.

For GGUUGUGUAAUGAGACUGATT against Olfr914, the z-score is inactive: -3.12.

CCGCAUUUCAGACAUAGGCTT against Olfr415: the z-score is inactive: 0.486.

As to GCAGUAUAUACCCACUCGGTT against Stk17b, the z-score is inactive: -0.117.

As for GGUGUGUGGUAGAAGACAATT against Lsamp, the z-score was inactive: 0.17.

As to “UCUGGAGUCUUAUCAAGGATT against 2210020M01Rik”, the z-score was inactive: -0.752.

Consider CCUGAAUGGACAAACAGGATT against MGC129481, for which the z-score is inactive: -0.0933.

Turning to GGCUUGCAUAUCUAUUGGATT against Map2k6, the z-score is inactive: -0.819.

Regarding GCGGGACCAGGAGUAAACUTT against Pabpnl1, the z-score is inactive: 2.06.

Consider GCUACUUUACUACCAGGCCTT against Slc35e3, for which the z-score was inactive: 1.42.

As to “GGCACAGAAAUUAUGUUCUTT against 1810012H11Rik”, the z-score is inactive: -0.685.

GGAUUGUCAGAAAUCCUGATT against Deadc1: the z-score was inactive: -0.368.

In the case of GGAGCUCUUCAUCCUCAACTT against Arhgap8, the z-score was inactive: 0.0742.

With GGAAUGUGUUAUGGUGAUUTT against Mgl2, the z-score is inactive: -0.346.

For the sequence GCCUGAAAUCAACUCCACCTT against F2, the z-score is inactive: -0.942.

In the case of CCUUUUCCGGUUAAAGCAGTT against Hrmt1l3, the z-score was inactive: 0.824.

GGCCUAUCCAUAAUUUAUCTT against Mcm8: the z-score was inactive: 1.41.

Regarding GGAUGUCACAACAGUUAUGTT against Otog, the z-score is inactive: 1.4.

With GGGCUCACACAGAAAAAUUTT against Cd244, the z-score is inactive: -1.72.

GGAUGGAGAAGUUUACUACTT against Yap1: the z-score is inactive: -2.7.

For GUACUUUCUUAUUCUCCAATT against Tas2r123, the z-score is inactive: -1.89.

Consider UCUUUGGGUAGUUUAGGUATT against Olfr1310, for which the z-score is inactive: -0.948.

For the sequence GGUCUCAAAGAAAUCUGUATT against Bcap29, the z-score is inactive: 0.93.

Turning to GGUUACGAAGAUUAAUGUGTT against Crk, the z-score is inactive: 0.0905.

For GCUAGCCAAUUGUGUUUGATT against Gjb3, the z-score is inactive: -1.3.

Take GCCUCCAGAACUCACUGCATT against Hes3: the z-score is inactive: 0.776.

“GGUUGUAAGGAACUCUUGGTT against D630002G06”: the z-score was inactive: -0.0542.

CGGUGAUAGUGGAGUUUGUTT against Olfr266: the z-score is inactive: -0.501.

For GGUCUUCAAGAACUGUAGCTT against Bcl11b, the z-score was inactive: 0.566.

CCUGUAUACUAUCACUUGUTT against Casp8: the z-score is inactive: -0.0716.

Regarding GCUAUUCAAUAUUUAUGGCTT against Zic1, the z-score was inactive: 0.414.

With “GGAUGAGGAGAUAAAGUCUTT against 9130017N09Rik”, the z-score was inactive: 0.314.

As to CGAAAAAAAUCCAAGUCAATT against Akap12, the z-score was inactive: 2.76.

Regarding GGCUAUGACUCGAUUUCUATT against Msh5, the z-score is inactive: -0.312.

On to CCUUUCGAUGAUAAUCGAATT against Olfr971, for which the z-score is inactive: 1.06.

For GGACGUAUACAUUCAAUCUTT against Ubash3a, the z-score was inactive: 1.26.

For the sequence CCACCUUGUUGAGUGGCACTT against Smarcd3, the z-score is inactive: 0.463.

As for GCUGGAUUCUGGUAAAUGGTT against Eif5a, the z-score is inactive: -1.29.

For the sequence GGGCAACAAGGAGUACUCATT against LOC260408, the z-score was inactive: 2.22.

As to “CCGCAUAAGAGAAUCAAGGTT against 1700012B09Rik”, the z-score was inactive: 0.812.

In the case of CGCGGAAGUUUGAAGUCCUTT against Tusc1, the z-score was inactive: 1.19.

For the sequence GGCAGAUCUGGAGAACCAGTT against Rras, the z-score was inactive: -2.12.

Consider GUCACUGAAUUUCUCCUCUTT against Olfr104, for which the z-score is inactive: -2.23.

Turning to GGAGGCUGAAAACAUCGUGTT against Sncg, the z-score is inactive: 0.0624.

In the case of GGGAUUUCGCCAUUGGUGUTT against Col15a1, the z-score was inactive: 0.853.

On to “GGAAGAGGUUAGCAAGCAUTT against 1700069O15Rik”, for which the z-score was inactive: 0.361.

On to “GCAAGAAACAGCAUUGUCCTT against A930027K05Rik”, for which the z-score was inactive: 0.661.

Consider “CGUGGUCCUCGAUAACAAATT against 2310001H13Rik”, for which the z-score is inactive: -0.185.

Consider GGACUGUGAGGCCUAUGAATT against Cd72, for which the z-score was inactive: -2.78.

Regarding CCGACUCGUCUUUACAACUTT against Abcc6, the z-score was inactive: 0.5.

Consider CCAAACGAGAGAAAUUCAATT against Rin1, for which the z-score is inactive: 1.15.

Consider GGAGAUGCUGAAGGAUGAGTT against Hrmt1l2, for which the z-score was inactive: 2.42.

Take GCAAAGUACCCACCUUUGUTT against Pitpn: the z-score is inactive: 1.9.

Regarding “GCAAUUCUGACAACAGCCUTT against A530099J19Rik”, the z-score is inactive: 0.209.

As to GGACCUUGUACCCAUUCCUTT against Arhgap8, the z-score was inactive: -1.45.

Consider GGAAGAAUUGAGGAAAUAGTT against Bbx, for which the z-score was inactive: 0.629.

As to “GGAAGUCCGUUUUUAAGAATT against 4732429I09Rik”, the z-score was inactive: -0.792.

For GCUCCUAGCAGCUCUGAUGTT against Trim33, the z-score is inactive: -0.0481.

“GGUUCGGGAGACACCUCUUTT against A930008G19Rik”: the z-score was inactive: 0.182.

For the sequence GGGCACCAAGAAAAGUCUCTT against Mageh1, the z-score is inactive: -0.167.

GGGAGGUUCACAUCCUAAATT against Tgfbr3: the z-score was inactive: 0.817.

Turning to “GGUGAUACGUAUUUUUUAGTT against 2700050F09Rik”, the z-score is active: 1.03.

Turning to CCUGUGCUUUUGUGCAUUATT against Clta, the z-score was inactive: 0.72.
